Laboratory results taken from publication doi:10.1101/2020.09.18.302265.
No constants are given. Whether binding was seen depends on the method and setting. Sequences can lack the tags named with a protein.

Chains of the proteins cited; added tags and fusions are not shown.
UniProt O75838: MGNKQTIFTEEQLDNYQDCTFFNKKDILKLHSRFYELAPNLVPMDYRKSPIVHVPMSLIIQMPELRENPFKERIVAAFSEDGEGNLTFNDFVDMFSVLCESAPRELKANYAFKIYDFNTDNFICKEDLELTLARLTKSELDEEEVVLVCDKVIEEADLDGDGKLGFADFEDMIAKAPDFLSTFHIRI

Target: GFP-hCIB2 (calcium and integrin binding protein 2) (human) (UniProt O75838)
Assay: NanoSPD

binding: no binding
B1: FLAG-tagged TSC1 (protein, UniProt Q92574 1-1164)
chain: MAQQANVGELLAMLDSPMLGVRDDVTAVFKENLNSDRGPMLVNTLVDYYLETSSQPALHILTTLQEPHDKHLLDRINEYVGKAATRLSILSLLGHVIRLQPSWKHKLSQAPLLPSLLKCLKMDTDVVVLTTGVLVLITMLPMIPQSGKQHLLDFFDIFGRLSSWCLKKPGHVAEVYLVHLHASVYALFHRLYGMYPCNFVSFLRSHYSMKENLETFEEVVKPMMEHVRIHPELVTGSKDHELDPRRWKRLETHDVVIECAKISLDPTEASYEDGYSVSHQISARFPHRSADVTTSPYADTQNSYGCATSTPYSTSRLMLLNMPGQLPQTLSSPSTRLITEPPQATLWSPSMVCGMTTPPTSPGNVPPDLSHPYSKVFGTTAGGKGTPLGTPATSPPPAPLCHSDDYVHISLPQATVTPPRKEERMDSARPCLHRQHHLLNDRGSEEPPGSKGSVTLSDLPGFLGDLASEEDSIEKDKEEAAISRELSEITTAEAEPVVPRGGFDSPFYRDSLPGSQRKTHSAASSSQGASVNPEPLHSSLDKLGPDTPKQAFTPIDLPCGSADESPAGDRECQTSLETSIFTPSPCKIPPPTRVGFGSGQPPPYDHLFEVALPKTAHHFVIRKTEELLKKAKGNTEEDGVPSTSPMEVLDRLIQQGADAHSKELNKLPLPSKSVDWTHFGGSPPSDEIRTLRDQLLLLHNQLLYERFKRQQHALRNRRLLRKVIKAAALEEHNAAMKDQLKLQEKDIQMWKVSLQKEQARYNQLQEQRDTMVTKLHSQIRQLQHDREEFYNQSQELQTKLEDCRNMIAELRIELKKANNKVCHTELLLSQVSQKLSNSESVQQQMEFLNRQLLVLGEVNELYLEQLQNKHSDTTKEVEMMKAAYRKELEKNRSHVLQQTQRLDTSQKRILELESHLAKKDHLLLEQKKYLEDVKLQARGQLQAAESRYEAQKRITQVFELEILDLYGRLEKDGLLKKLEEEKAEAAEAAEERLDCCNDGCSDSMVGHNEEASGHNGETKTPRPSSARGSSGSRGGGGSSSSSSELSTPEKPPHQRAGPFSSRWETTMGEASASIPTTVGSLPSSKSFLGMKARELFRNKSESQCDEDGMTSSLSESLKTELGKDLGVEAKIPLNLDGPHPSPPTPDSVGQLHIMDYNETHHEHS
